In paper doi:10.1101/2023.02.16.528822:
Results are given in words; binding and its absence hold for the method and conditions named. In cells and extracts the contact can be indirect. These calls come from enrichment with a bait or labelling near it, and not all partners need be listed. A no says only that the protein was not detected with the bait.

Chains of the proteins cited; added tags and fusions are not shown.
UniProt Q76E23: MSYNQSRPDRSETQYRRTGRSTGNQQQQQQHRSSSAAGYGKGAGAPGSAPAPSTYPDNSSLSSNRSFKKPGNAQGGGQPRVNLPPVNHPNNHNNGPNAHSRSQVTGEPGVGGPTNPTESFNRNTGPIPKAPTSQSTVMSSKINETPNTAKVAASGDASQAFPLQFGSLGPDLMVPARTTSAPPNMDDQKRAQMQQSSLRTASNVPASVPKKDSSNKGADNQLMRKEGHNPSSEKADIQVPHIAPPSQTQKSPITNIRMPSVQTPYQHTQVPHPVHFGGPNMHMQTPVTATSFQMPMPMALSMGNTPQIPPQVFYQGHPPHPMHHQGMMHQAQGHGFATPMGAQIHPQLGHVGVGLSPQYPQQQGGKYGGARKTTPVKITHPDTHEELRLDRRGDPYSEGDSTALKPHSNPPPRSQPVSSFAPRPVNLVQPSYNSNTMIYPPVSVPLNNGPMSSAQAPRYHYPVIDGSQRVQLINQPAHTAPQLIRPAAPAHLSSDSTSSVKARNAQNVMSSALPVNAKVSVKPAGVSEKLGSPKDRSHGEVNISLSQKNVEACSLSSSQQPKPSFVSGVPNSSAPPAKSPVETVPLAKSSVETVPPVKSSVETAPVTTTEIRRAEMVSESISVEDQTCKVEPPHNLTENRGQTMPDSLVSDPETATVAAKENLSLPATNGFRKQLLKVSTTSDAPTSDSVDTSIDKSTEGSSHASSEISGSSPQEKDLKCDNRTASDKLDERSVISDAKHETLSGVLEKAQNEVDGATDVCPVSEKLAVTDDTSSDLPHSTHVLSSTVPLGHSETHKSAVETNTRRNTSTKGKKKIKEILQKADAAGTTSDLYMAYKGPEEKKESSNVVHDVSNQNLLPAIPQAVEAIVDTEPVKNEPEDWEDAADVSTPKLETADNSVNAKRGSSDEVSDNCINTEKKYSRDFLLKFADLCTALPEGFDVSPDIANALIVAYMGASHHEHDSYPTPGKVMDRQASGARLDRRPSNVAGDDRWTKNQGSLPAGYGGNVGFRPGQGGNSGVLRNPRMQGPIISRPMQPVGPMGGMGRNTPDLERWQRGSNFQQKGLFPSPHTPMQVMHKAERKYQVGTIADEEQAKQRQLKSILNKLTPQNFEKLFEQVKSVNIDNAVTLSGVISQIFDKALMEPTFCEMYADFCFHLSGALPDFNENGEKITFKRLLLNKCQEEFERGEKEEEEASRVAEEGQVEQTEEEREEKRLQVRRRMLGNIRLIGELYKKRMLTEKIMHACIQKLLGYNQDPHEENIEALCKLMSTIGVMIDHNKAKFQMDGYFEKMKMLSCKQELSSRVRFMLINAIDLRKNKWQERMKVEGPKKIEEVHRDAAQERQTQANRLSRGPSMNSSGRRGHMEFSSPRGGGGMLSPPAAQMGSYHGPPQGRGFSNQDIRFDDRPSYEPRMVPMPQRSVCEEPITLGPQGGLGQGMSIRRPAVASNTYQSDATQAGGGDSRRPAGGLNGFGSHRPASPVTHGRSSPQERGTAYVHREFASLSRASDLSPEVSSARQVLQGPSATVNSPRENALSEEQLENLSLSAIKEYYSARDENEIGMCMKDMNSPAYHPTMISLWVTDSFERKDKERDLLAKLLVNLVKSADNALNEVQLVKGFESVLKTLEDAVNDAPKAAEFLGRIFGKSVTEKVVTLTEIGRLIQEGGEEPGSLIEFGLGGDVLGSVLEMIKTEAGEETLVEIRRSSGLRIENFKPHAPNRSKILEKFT

Molecular target: T1, eIF(iso)4E (Arabidopsis (endogenous in Arabidopsis plants)) (UniProt O04663)
T1 sequence: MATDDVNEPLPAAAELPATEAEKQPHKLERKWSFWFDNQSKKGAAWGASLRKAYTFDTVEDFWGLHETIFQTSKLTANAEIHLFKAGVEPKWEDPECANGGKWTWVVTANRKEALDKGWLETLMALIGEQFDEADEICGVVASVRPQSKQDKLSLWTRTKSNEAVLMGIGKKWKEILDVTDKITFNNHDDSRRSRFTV
Test: affinity purification with mass spectrometry

- binding: no binding
Substance: eIF4G (from UniProt Q76E23 1-1727)
